No constants are given. Whether binding was seen depends on the method and setting. Binding seen in cells or lysates may run through a third protein.
Key:
[1] = molecular target: YAP (mouse (endogenous in mouse ISCs)), P46938; test: co-IP; settings: remark: other sources report otherwise
[2] = molecular target: YAP (pCMV6-YAP, mouse) (mouse), P46938; test: co-IP; settings: remark: other sources report otherwise

Row | Binder | binding [1] | binding [2]
1 | 14-3-3 gamma, P61982 1-247 (protein) MVDREQLVQKARLAEQAERYDDMAAAMKNVTELNEPLSNEERNLLSVAYKNVVGARRSSWRVISSIEQKTSADGNEKKIEMVRAYREKIEKELEAVCQDVLSLLDNYLIKNCSETQYESKVFYLKMKGDYYRYLAEVATGEKRATVVESSEKAYSEAHEISKEHMQPTHPIRLGLALNYSVFYYEIQNAPEQACHLAKTAFDDAIAELDTLNEDSYKDSTLIMQLLRDNLTLWTSDQQDDDGGEGNN | no binding | –
2 | 14-3-3 gamma (pCMV6-14-3-3 gamma, mouse), P61982 1-247 (protein) MVDREQLVQKARLAEQAERYDDMAAAMKNVTELNEPLSNEERNLLSVAYKNVVGARRSSWRVISSIEQKTSADGNEKKIEMVRAYREKIEKELEAVCQDVLSLLDNYLIKNCSETQYESKVFYLKMKGDYYRYLAEVATGEKRATVVESSEKAYSEAHEISKEHMQPTHPIRLGLALNYSVFYYEIQNAPEQACHLAKTAFDDAIAELDTLNEDSYKDSTLIMQLLRDNLTLWTSDQQDDDGGEGNN | – | no binding
